# Laboratory results: US6492333B1, “Treatment of myeloma bone disease with proteasomal and NF-κB activity inhibitors” (Osteoscreen, Inc., priority 1999, dated 2002)
# Some entries share one result that the patent states for a list of compounds. For at least one compound, name, drawing or mass did not settle the structure.
# Legend:
# [1] = test system: human myeloma IM-9 cells; test: Viability of myeloma cells by trypan blue dye-exclusion assay (IM-9); format: cell-based; conditions: 0.1 μM, 24 hours
# Procedure: (§1) In another experiment, the direct effect of the proteasomal inhibitor PSI and other NF-kB inhibitors on the viability in human myeloma cells and 5TGM-1 cells in vitro was evaluated.
# (§2) 1×10^6 human myeloma (IM9 and U266BL) cells or 5TGM-1 cells were plated out in the presence and/or absence of PSI and other NF-κB inhibitors. After 24 hours, the viability of the myeloma cells was assessed by the trypan blue dye-exclusion assay. These compounds, at low (submicromolar) concentrations, markedly decrease the viability of both human and murine myeloma cells in culture.
# [2] = test system: 5TGM1 cells; test: Viability of myeloma cells by trypan blue dye-exclusion assay (5TGM-1); format: cell-based, murine; conditions: 1 nM, 24 hours
# Procedure: as §1, §2
SMILES,viability [1],viability [2]
"S=C(S)N1CCCC1 [PDTC, 1-pyrrolidine carbothiotic acid]",less than 10%,less than 40%
O=C(NC1=CC(=O)c2ccccc2C1=O)c1ccccc1 [PPM-18],–,less than 40%
